This is one part of the list.
tested on: T1, CTL2-GFP (C. trachomatis L2/434/Bu, GFP-expressing); parameters: species or system HeLa; Intracellular C. trachomatis growth in HeLa cells, bulk GFP fluorescence relative to DMSO; details: bulk GFP, single well; 28.5 h, 10 µM; inhibitor
T1 construct: L2/434/Bu, GFP-expressing

SMILES	% of control remaining [%]
Cc1cc(NC(=O)CN(C)C(=O)c2cnc(Cl)c(Cl)c2)no1 [CBK306132]	101.329
NS(=O)(=O)c1ccc(CCNC(=O)C2CC2)cc1 [CBK288407]	84.4774
Cc1nn(CC(=O)N2CCCCC2C)c(=O)c2cc3sccc3n12 (stereo not drawn) [CBK284141]	123.941
Cc1ccc(OCC(=O)N2CCN(C(=O)c3ccncc3)CC2)cc1 [CBK300480]	122.546
CC(C)N1CCC(C(=O)NC(=O)Nc2ccc3c(c2)OCCO3)CC1 [CBK034799]	116.472
CC(C)CNC(=S)N[C@H]1CC[C@@]2(c3cccnc3)CCN(Cc3ccccc3)[C@H]2C1 [CBK028460]	121.884
CC(=O)NCCSc1nc2ccccc2nc1N1CCCC1 [CBK103696]	113.331
O=S(=O)(CC(F)(F)F)Nc1ccc(-c2nnn[nH]2)cc1 [CBK154754]	95.1806
COc1cc(C(=O)N(Cc2ccco2)c2ccc(O)cc2)cc(OC)c1OC [CBK266315]	95.1268
CC(C)(C)OC(=O)N1CCN(c2cncc(OC3CSCc4ccccc43)n2)CC1 (stereo not drawn) [CBK172354]	128.404
O=C(Nc1cccc(C(=O)O)c1)/C(=C\c1ccc2c(c1)OCO2)NC(=O)c1ccccc1 [CBK263697]	113.949
CCN1C(=O)S/C(=C/c2ccc(OCc3cccc(C(=O)O)c3)cc2)C1=O [CBK265605]	115.714
c1ccc(NCc2ncnc3c2ncn3C2CCCCO2)cc1 (stereo not drawn) [CBK021593]	66.276
CCC1CCCCN1Cc1nc2c(c(=O)n(C)c(=O)n2C)n1CCOC (stereo not drawn) [CBK305912]	138.985
COc1ccc(NC(=O)Nc2ccc3nc(C)c(C)nc3c2)cc1 [CBK265120]	153.073
CCCCN(Cc1ccc(C)s1)C(=O)C1CCc2nn(C)c(=O)n2C1 (stereo not drawn) [CBK307360]	118.337
CCn1cncc1CN(CCCn1ccnc1)CC1CC=CCC1 (stereo not drawn) [CBK283220]	126.471
CCC1(CC)OC(N[C@@H](C)c2ccc3ccccc3c2)=NC1=O [CBK123982]	107.213
Cc1cc(C)cc(C(=O)N(CCc2ccccc2)C2CC3CCC(C2)N3C)c1 (stereo not drawn) [CBK262612C]	100
Cc1oc2ccc(O)cc2c1C(=O)NCCCN1CC(C)CC(C)C1 (stereo not drawn) [CBK282161]	126.408
O=C(O)/C(=N\O)c1ccc(CCc2ccccc2)s1 [CBK261213]	100
Cc1nnc([C@H]2CCN(Cc3ccccc3)C2)o1 [CBK289390]	110.743
O=C(CCCc1ccccc1)Nc1ccc(O)cc1C(=O)O [CBK131699]	129.768
O=C(NCc1ccc(N2CCCC2=O)cc1)c1cc(Br)ccc1O [CBK296614]	127.666
CC12CCC(CC1C(=O)NC1CC1)[C@]1(C2)NC(=O)c2ccccc2N1 (stereo partly drawn) [CBK284445]	141.36
CC1=Nc2c(cnn2-c2ccccc2)C2=NCCCN12 [CBK287928]	145.101

A few values from above:
CCC1CCCCN1Cc1nc2c(c(=O)n(C)c(=O)n2C)n1CCOC (stereo not drawn) [CBK305912] – % of control remaining [%]: 138.985
CCCCN(Cc1ccc(C)s1)C(=O)C1CCc2nn(C)c(=O)n2C1 (stereo not drawn) [CBK307360] – % of control remaining [%]: 118.337

Going on with the list:

SMILES	% of control remaining [%]
Cn1c(=O)n(CC(=O)NCc2cccc(F)c2)c2cccnc21 [CBK283911]	156.909
CC(=O)Nc1ccc(CCOc2nccnc2-c2ccc(C)cc2C)cc1 [CBK106985]	82.5639
O=C(c1ccoc1)N1CCC2(CCCN(Cc3ccc(OC(F)(F)F)cc3)C2)C1 (stereo not drawn) [CBK132801]	111.269
COc1ccc(C(=O)Nc2ccccc2C(=O)NCCCC(=O)O)cc1 [CBK287024]	123.517
COc1ccc(-c2nc(NC(=O)Cc3ccccc3OC)cnc2-c2cccc(C)c2)cn1 [CBK036839]	113.276
Cn1c(=O)c(-c2nc3ccccc3[nH]2)c(O)c2ccccc21 [CBK027678]	140.555
Cc1ccc(S(=O)(=O)NC(Cc2ccccc2)C(=O)O)cc1 (stereo not drawn) [CBK217645]	122.498
O=C(N/N=C/c1c(O)ccc2ccccc12)c1ccc(CO)nc1 [CBK261375]	49.168
Nc1ccc(-c2cc(F)cc(F)c2)c2ccccc12 [CBK084314]	104.156
CC(=O)NC1(c2ccc(F)cc2)CCN(CC(=O)NCC2CC2)CC1 [CBK283614]	159.698
NS(=O)(=O)c1cc(C(=O)O)ccc1F [CBK113180]	117.327
COc1ncc(-c2cnc3[nH]c(=O)n(Cc4ccc(S(C)(=O)=O)cc4)c3n2)cn1 [CBK065053]	112.079
CC(NC(=O)C1(Cn2ccnc2)CC1)c1ccccc1-n1cccn1 (stereo not drawn) [CBK307006]	94.096
CC(C)(C)c1ccc(CNC(=O)C2CCCN2S(=O)(=O)c2ccc3ccccc3c2)cc1 (stereo not drawn) [CBK265020]	97.7786
COc1ccc(OC)c(C(O)c2coc3ccc(O)c(CN(C)C)c23)c1 (stereo not drawn) [CBK261314]	83.5631
CCN1CCN(c2ccc(C(=O)OC)cc2NC(=O)c2ccccc2Cl)CC1 [CBK270267]	144.948
Clc1cccc(CNc2cncc(-c3cccnc3)n2)c1 [CBK065283]	67.5366
CN(C)CCNc1ccc(-c2n[nH]c(=O)c3ccccc23)cc1[N+](=O)[O-] [CBK266143]	123.196
COc1ccccc1N1CCN(CCCCNC(=O)c2ccc(Cl)cc2)CC1 [CBK074835]	99.9387
CC(C)(C)OC(=O)N1CCN(Cc2nc(-c3ccccc3)no2)CC1 [CBK306465]	96.6175
O=C(OCc1ccc(Sc2ccc([N+](=O)[O-])cc2Cl)cc1)c1cnccn1 [CBK268037]	137.813
O=C1NC2(CCCCC2)C(=O)N1c1cccc(Cl)c1 [CBK287969]	133.903
Cc1cc(C)n(-c2nc3c(c(=O)[nH]c(=O)n3C)n2CCc2ccccc2)n1 [CBK087129]	106.708
O=C(c1nn2c(C(F)(F)F)cc(-c3ccccc3)nc2c1Br)N1CCCCC1 [CBK051497]	107.076
O=C(O)CNC(=O)/C(=C/c1ccc(Br)cc1)NC(=O)c1ccc(Br)o1 [CBK262537]	100
